Measurements reported in PubChem BioAssay AID1259254 (NCATS, 2017).

- Assay: 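Gene knock-downs that lead to re-replication, shown by excess G2 DNA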 (primary screen)
- System: human HCT116 colorectal cancer cells
- Knock-down reagent: single siRNA against human genes
- Time to read-out: 3 days
- Measured: 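Nuclei stained with Hoechst and imaged; cell-cycle phase assigned by DNA content; G2 share scaled per plate, non-targeting siRNA 0%, GMNN siRNA 100%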
- Direction: G2 robust z-score and G2 cells, % of GMNN control: higher = more G2 cells, more excess DNA replication
- Rule for the call: 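An siRNA counts as active if its G2 robust z-score lies at least 5 MADs above the screen median; here such calls match roughly 38% of GMNN control or more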
The whole screen tested about 59,000 reagents; below is an unselected part. Of all reagents, about 1,550 (2.6%) are marked active. 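G2 share is only a proxy for re-replication; each gene was hit by three separate siRNAs, and active genes were retested.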 Reagents against one gene are numbered here. Further read-outs or replicates are left out here. Not given: the amount of reagent.

With knock-down of SLC10A1 #1, the record shows G2 robust z-score -0.0197; G2 cells, % of GMNN control 2.83; inactive. SLC10A1 #2 gave G2 robust z-score -1.38; G2 cells, % of GMNN control -6.75; inactive. Knock-down of SLC10A1 #3 resulted in: G2 robust z-score -0.298; G2 cells, % of GMNN control 0.869; inactive. With knock-down of AMIGO1 (adhesion molecule with Ig like domain 1) #1, the screen gave G2 robust z-score -0.0999; G2 cells, % of GMNN control 2.26; inactive. With knock-down of AMIGO1 (adhesion molecule with Ig like domain 1) #2, the record shows G2 robust z-score 1.43; G2 cells, % of GMNN control 13; inactive. For AMIGO1 (adhesion molecule with Ig like domain 1) #3, the entry reads G2 robust z-score 1.03; G2 cells, % of GMNN control 10.2; inactive.

For MRPS22 (mitochondrial ribosomal protein S22) #1, the values are G2 robust z-score -0.638; G2 cells, % of GMNN control -1.52; inactive. MRPS22 (mitochondrial ribosomal protein S22) #2 showed G2 robust z-score 0.933; G2 cells, % of GMNN control 9.53; inactive. Depletion of MRPS22 (mitochondrial ribosomal protein S22) #3 resulted in: G2 robust z-score 3.47; G2 cells, % of GMNN control 27.4; inactive. TSLIG3B (tRNA splicing ligase complex subunit 3B) #1 scored G2 robust z-score -0.144; G2 cells, % of GMNN control 1.95; inactive. With knock-down of TSLIG3B (tRNA splicing ligase complex subunit 3B) #2, the record shows G2 robust z-score 1.08; G2 cells, % of GMNN control 10.6; inactive. Knock-down of TSLIG3B (tRNA splicing ligase complex subunit 3B) #3 gave: G2 robust z-score 0.357; G2 cells, % of GMNN control 5.48; inactive.

Depletion of PRMT2 (protein arginine methyltransferase 2) #1 gave: G2 robust z-score -0.148; G2 cells, % of GMNN control 1.92; inactive. With knock-down of PRMT2 (protein arginine methyltransferase 2) #2, the screen gave G2 robust z-score -0.309; G2 cells, % of GMNN control 0.79; inactive. Against PRMT2 (protein arginine methyltransferase 2) #3 the deposit lists G2 robust z-score -0.637; G2 cells, % of GMNN control -1.52; inactive. FEV (FEV transcription factor, ETS family member) #1 showed G2 robust z-score 1.17; G2 cells, % of GMNN control 11.2; inactive. Depletion of FEV (FEV transcription factor, ETS family member) #2 resulted in: G2 robust z-score -0.206; G2 cells, % of GMNN control 1.52; inactive. Against FEV (FEV transcription factor, ETS family member) #3, the entry reads G2 robust z-score -0.27; G2 cells, % of GMNN control 1.07; inactive.

Entries above whose target name starts with M or m (3):
MRPS22 (mitochondrial ribosomal protein S22) #1 | G2 robust z-score: -0.638; G2 cells, % of GMNN control: -1.52; outcome: inactive
MRPS22 (mitochondrial ribosomal protein S22) #2 | G2 robust z-score: 0.933; G2 cells, % of GMNN control: 9.53; outcome: inactive
MRPS22 (mitochondrial ribosomal protein S22) #3 | G2 robust z-score: 3.47; G2 cells, % of GMNN control: 27.4; outcome: inactive

Continued.
After knock-down of GP2 (glycoprotein 2) #1, the screen gave G2 robust z-score 0.344; G2 cells, % of GMNN control 5.38; inactive. Against GP2 (glycoprotein 2) #2, the values are G2 robust z-score -0.56; G2 cells, % of GMNN control -0.972; inactive. After knock-down of GP2 (glycoprotein 2) #3, the screen gave G2 robust z-score 0.55; G2 cells, % of GMNN control 6.83; inactive. Silencing of SH3BGRL2 (SH3 domain binding glutamate rich protein like 2) #1 resulted in: G2 robust z-score -0.943; G2 cells, % of GMNN control -3.67; inactive. After knock-down of SH3BGRL2 (SH3 domain binding glutamate rich protein like 2) #2, the screen gave G2 robust z-score 1.18; G2 cells, % of GMNN control 11.3; inactive. SH3BGRL2 (SH3 domain binding glutamate rich protein like 2) #3 showed G2 robust z-score -0.179; G2 cells, % of GMNN control 1.71; inactive.

Silencing of KLHL36 (kelch like family member 36) #1 came out at: G2 robust z-score -0.611; G2 cells, % of GMNN control -1.33; inactive. Knock-down of KLHL36 (kelch like family member 36) #2 came out at: G2 robust z-score 2.99; G2 cells, % of GMNN control 24; inactive. KLHL36 (kelch like family member 36) #3 showed G2 robust z-score 0.0294; G2 cells, % of GMNN control 3.17; inactive. For PSME4 (proteasome activator subunit 4) #1 the deposit lists G2 robust z-score 0.763; G2 cells, % of GMNN control 8.33; inactive. Silencing of PSME4 (proteasome activator subunit 4) #2 gave: G2 robust z-score -0.819; G2 cells, % of GMNN control -2.79; inactive. Depletion of PSME4 (proteasome activator subunit 4) #3 resulted in: G2 robust z-score 0.405; G2 cells, % of GMNN control 5.82; inactive.
